Results deposited as PubChem BioAssay AID720505 (Drosophila RNAi Screening Center, 2013).
The deposit covers about 20,000 reagents; shown is an unselected part of those with a known target gene and a result. In the full data, about 2,100 (10%) got an active call. 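Raw plate signals without normalisation; calls rest on control-based scores that were not deposited; replicate 2 separates called from uncalled poorly.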 Reagents against one gene are numbered here. The record does not give: the amount of reagent, the time to read-out.

Test: 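Knock-downs that reduce calcium influx once internal stores are emptied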 (primary screen)
System: Drosophila S2R+ cells
Knock-down reagent: long dsRNA against Drosophila genes
Challenge: thapsigargin (2 µM) in calcium-free buffer to empty internal stores, then 2 mM calcium added back
Detection: 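Stores emptied by 2 µM thapsigargin without calcium, then 2 mM calcium re-added; fluo-4 fluorescence followed by FLIPR in 384-well plates, per-well averaged endpoint, raw; two screen passes, some wells retested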
Reading the numbers: calcium signal and retest calcium signal: higher = more calcium entry after store depletion
Hit rule: 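About 1500 genes called as lowering calcium entry, by varying amounts, judged against per-plate control wells with STIM1 as positive and Rho1 as negative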
Calls: active = called as lowering calcium entry; inactive = not called

| gene | reagent | calcium signal, replicate 1 | calcium signal, replicate 2 | retest calcium signal, replicate 1 | retest calcium signal, replicate 2 | activity call |
| --- | --- | --- | --- | --- | --- | --- |
| Slob | 1 | 217 | 76.7 | – | – | inactive |
| Slob | 2 | 128 | 243 | – | – | inactive |
| NaPi-III | 1 | 79.6 | 135 | – | – | inactive |
| NaPi-III | 2 | 103 | 110 | – | – | inactive |
| NaPi-III | 3 | 99.7 | 165 | – | – | inactive |
| Flad1 | 1 | 171 | 142 | – | – | inactive |
| CG5070 | 1 | 85.6 | 89.3 | – | – | inactive |
| CG12171 | 1 | 132 | 165 | – | – | inactive |
| Cht6 | 1 | 96.7 | 78.3 | – | – | inactive |
| Cht6 | 2 | 110 | 108 | – | – | inactive |
| Cht6 | 3 | 76.3 | 93.3 | – | – | active |
| Cht6 | 4 | 79.7 | 95 | – | – | inactive |
| Faf2 | 1 | 111 | 88 | – | – | inactive |
| CG6769 | 1 | 151 | 130 | – | – | inactive |
| Fum2 | 1 | 165 | 137 | – | – | inactive |
| CG43110 | 1 | 85.2 | 101 | – | – | inactive |
| CG17612 | 1 | 131 | 248 | – | – | inactive |
| CG13560 | 1 | 144 | 200 | – | – | inactive |
| CG11756 | 1 | 108 | 79.7 | – | – | inactive |
| PH4alphaSG2 | 1 | 107 | 117 | – | – | inactive |
| Mondo | 1 | 175 | 80.7 | – | – | inactive |
| Mondo | 2 | 66.5 | 197 | – | – | inactive |
| Mondo | 3 | 63.8 | 180 | – | – | inactive |
| tth | 1 | 191 | 138 | – | – | inactive |
| CG32313 | 1 | 141 | 72.4 | – | – | inactive |
| mesh | 1 | 117 | 121 | 174 | 170 | inactive |
| mesh | 2 | 135 | 140 | – | – | inactive |
| mesh | 3 | 205 | 145 | – | – | inactive |
| NKCC | 1 | 98.1 | 89.8 | – | – | inactive |
| NKCC | 2 | 171 | 169 | – | – | inactive |
| Vha100-3 | 1 | 127 | 123 | – | – | inactive |
| vg | 1 | 98.7 | 143 | 133 | 107 | inactive |
| vg | 2 | 83.8 | 110 | – | – | inactive |
| Crk | 1 | 138 | 120 | – | – | inactive |
| Lip2 | 1 | 78.7 | 108 | – | – | active |
| Lip2 | 2 | 91.2 | 88 | – | – | inactive |
| CG18004 | 1 | 157 | 132 | – | – | inactive |
| CG11841 | 1 | 74.4 | 89.5 | – | – | inactive |
| CG3123 | 1 | 203 | 99.2 | – | – | inactive |
| CG13010 | 1 | 72.4 | 99.4 | – | – | active |
| Nepl15 | 1 | 163 | 264 | – | – | inactive |
| CG6462 | 1 | 81.3 | 65.1 | – | – | inactive |
| Ir60e | 1 | 123 | 174 | – | – | inactive |
| CG7025 | 1 | 62.9 | 198 | – | – | active |
| kra | 1 | 85.5 | 140 | – | – | inactive |
| CG13408 | 1 | 159 | 168 | – | – | inactive |
| CG3386 | 1 | 91 | 79.8 | – | – | inactive |
| Jon65Aii | 1 | 67.9 | 66.8 | – | – | inactive |
| Myt1 | 1 | 76.3 | 86.8 | – | – | inactive |
| CG31820 | 1 | 86.2 | 85 | – | – | inactive |
| CG43111 | 1 | 73.9 | 105 | – | – | inactive |
| nAChRbeta3 | 1 | 123 | 162 | – | – | inactive |
| Kdm4A | 1 | 163 | 212 | – | – | inactive |
| CG30496 | 1 | 153 | 76.7 | – | – | inactive |
| Gr59f | 1 | 191 | 203 | – | – | inactive |
| KrT95D | 1 | 123 | 190 | – | – | inactive |

8 entries from above in another layout.
gene,reagent,"calcium signal, replicate 1","calcium signal, replicate 2","retest calcium signal, replicate 1","retest calcium signal, replicate 2",activity call
NaPi-III,1,79.6,135,,,inactive
NaPi-III,2,103,110,,,inactive
NaPi-III,3,99.7,165,,,inactive
Flad1,1,171,142,,,inactive
CG5070,1,85.6,89.3,,,inactive
CG12171,1,132,165,,,inactive
Cht6,1,96.7,78.3,,,inactive
Cht6,2,110,108,,,inactive
